Data set [1] can be described thus: Density of dry powder by Transaxial Pressure (TAP), Micromeritics GeoPyc 1360. Particulars: consolidation force of 8 Newtons. It counts as physicochemical.
The nature of data set [2]: Drug integrity post processing by HPLC. It counts as physicochemical. The protocol: Drug integrity post processing was assessed by High Pressure Liquid Chromatography (“HPLC”) (Hewlett Packard Series 1100 HPLC). USP chromatography conditions were used for prednisone, naproxen, nifedipine, and griseofulvin. Vessels and vials containing naproxen or nifedipine solutions were protected from light. For paclitaxel, the chromatographic conditions included a Nucleosil column (5:m, C18, 100A, 250×4.6 mm), a mobile phase of 2 mM H3PO4/Acetonitrile (2:3) at a flow rate of 1.5 mL/min, UV detection at 227 nm, and a run time of 25 min.

SMILES strings stand for the structures.

Turning to `COc1ccc2cc([C@H](C)C(=O)O)ccc2c1` [Naproxen Bulk, naproxen], the Density in data set [1] turned out to be 0.69 g/mL. The “Purity (drug integrity post processing)” value in data set [2] worked out at 100%.

Values taken from patent publication US8821938B2, “Porous drug matrices and methods of manufacture thereof” (Acusphere, Inc., priority 1999, dated 2014).
